Experimental data taken from the supplement of paper PMC10849652.
Some of the results follow.

Amino acid sequences for entries named in this document (tags omitted). A change or cut given only in a name is not applied to a line headed by its entry.
UniProt P58004: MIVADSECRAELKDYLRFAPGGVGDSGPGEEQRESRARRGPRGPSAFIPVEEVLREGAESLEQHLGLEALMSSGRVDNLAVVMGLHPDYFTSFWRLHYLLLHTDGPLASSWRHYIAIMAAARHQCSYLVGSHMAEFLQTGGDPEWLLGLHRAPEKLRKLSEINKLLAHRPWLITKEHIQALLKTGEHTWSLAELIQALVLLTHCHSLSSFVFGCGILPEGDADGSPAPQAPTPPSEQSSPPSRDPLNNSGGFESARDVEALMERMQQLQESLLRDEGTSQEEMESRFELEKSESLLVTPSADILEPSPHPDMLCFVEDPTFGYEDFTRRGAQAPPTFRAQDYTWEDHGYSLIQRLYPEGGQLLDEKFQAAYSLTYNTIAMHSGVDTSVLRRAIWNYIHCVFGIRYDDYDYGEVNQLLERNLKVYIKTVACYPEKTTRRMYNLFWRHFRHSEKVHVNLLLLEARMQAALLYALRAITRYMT
UniProt P49281: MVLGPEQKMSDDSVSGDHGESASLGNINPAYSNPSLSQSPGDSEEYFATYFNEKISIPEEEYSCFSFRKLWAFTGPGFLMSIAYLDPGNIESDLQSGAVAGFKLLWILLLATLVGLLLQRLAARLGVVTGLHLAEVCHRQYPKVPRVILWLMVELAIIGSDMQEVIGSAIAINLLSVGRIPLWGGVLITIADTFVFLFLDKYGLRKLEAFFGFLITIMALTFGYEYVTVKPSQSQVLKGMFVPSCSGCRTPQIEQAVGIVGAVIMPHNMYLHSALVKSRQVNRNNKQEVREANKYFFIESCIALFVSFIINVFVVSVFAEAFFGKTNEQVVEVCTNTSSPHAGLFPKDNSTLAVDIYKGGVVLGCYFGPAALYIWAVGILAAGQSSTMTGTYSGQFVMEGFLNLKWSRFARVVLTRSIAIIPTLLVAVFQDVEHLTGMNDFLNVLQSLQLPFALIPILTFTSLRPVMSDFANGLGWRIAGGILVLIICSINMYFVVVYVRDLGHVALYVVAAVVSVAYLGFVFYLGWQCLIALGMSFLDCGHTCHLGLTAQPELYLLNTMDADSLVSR
UniProt P50454: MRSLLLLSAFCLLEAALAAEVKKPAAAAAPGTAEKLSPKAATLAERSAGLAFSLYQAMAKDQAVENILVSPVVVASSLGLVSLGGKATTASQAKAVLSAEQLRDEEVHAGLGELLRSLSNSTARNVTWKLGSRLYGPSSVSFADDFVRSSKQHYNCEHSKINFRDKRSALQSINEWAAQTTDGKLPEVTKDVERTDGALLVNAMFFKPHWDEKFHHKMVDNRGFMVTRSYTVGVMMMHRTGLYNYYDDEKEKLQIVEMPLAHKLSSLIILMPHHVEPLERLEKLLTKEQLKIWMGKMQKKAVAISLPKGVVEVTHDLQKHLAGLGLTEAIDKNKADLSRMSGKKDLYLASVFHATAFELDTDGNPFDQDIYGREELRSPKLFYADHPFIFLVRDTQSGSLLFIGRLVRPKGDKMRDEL
UniProt Q9H299: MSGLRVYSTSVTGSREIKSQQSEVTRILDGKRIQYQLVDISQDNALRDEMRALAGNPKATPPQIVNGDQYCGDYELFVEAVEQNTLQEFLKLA
UniProt Q9UJC5: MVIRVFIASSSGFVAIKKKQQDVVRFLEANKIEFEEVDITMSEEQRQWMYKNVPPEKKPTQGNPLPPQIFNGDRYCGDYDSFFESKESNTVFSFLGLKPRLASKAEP
UniProt Q99961: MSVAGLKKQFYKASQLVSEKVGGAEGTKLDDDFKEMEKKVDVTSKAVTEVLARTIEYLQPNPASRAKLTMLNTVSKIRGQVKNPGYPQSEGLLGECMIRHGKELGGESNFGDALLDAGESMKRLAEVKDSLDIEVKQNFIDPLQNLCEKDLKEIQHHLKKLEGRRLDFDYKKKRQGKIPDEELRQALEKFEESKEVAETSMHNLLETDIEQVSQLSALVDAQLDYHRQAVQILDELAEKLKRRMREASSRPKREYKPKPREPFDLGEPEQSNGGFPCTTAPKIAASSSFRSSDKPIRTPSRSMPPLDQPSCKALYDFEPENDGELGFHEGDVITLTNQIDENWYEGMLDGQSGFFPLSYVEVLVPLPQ
UniProt Q8NC51: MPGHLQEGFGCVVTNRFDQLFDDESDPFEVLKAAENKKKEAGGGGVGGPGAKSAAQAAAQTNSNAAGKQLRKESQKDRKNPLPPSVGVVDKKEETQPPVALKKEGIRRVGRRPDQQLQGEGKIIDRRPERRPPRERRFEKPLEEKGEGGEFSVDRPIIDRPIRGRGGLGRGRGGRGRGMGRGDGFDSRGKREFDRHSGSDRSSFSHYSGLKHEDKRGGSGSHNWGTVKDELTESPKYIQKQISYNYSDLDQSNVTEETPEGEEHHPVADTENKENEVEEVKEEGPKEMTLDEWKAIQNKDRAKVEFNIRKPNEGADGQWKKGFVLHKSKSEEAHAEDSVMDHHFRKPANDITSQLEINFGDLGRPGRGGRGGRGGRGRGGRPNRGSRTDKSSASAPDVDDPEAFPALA
UniProt P50453: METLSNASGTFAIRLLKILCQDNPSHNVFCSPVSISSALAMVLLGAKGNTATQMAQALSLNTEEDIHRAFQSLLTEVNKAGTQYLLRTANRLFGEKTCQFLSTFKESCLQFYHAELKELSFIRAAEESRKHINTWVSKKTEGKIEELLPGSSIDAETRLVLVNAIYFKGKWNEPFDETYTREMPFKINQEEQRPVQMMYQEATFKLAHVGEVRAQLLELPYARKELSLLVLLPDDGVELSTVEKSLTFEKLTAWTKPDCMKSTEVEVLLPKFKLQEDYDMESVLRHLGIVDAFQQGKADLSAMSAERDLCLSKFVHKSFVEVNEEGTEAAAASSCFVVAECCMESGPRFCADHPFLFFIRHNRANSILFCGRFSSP
UniProt Q8IXJ6: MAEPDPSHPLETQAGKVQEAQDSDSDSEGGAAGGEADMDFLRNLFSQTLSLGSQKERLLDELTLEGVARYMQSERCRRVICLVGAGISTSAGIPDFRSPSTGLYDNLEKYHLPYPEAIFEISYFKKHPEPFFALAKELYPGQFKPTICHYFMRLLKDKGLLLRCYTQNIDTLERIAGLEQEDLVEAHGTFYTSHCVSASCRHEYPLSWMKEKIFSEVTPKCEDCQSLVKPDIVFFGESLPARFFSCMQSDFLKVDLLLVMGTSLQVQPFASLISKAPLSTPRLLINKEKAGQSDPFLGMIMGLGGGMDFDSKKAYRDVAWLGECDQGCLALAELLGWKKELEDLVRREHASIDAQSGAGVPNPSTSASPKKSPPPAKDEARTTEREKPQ
UniProt O75533, whole entry, looked up: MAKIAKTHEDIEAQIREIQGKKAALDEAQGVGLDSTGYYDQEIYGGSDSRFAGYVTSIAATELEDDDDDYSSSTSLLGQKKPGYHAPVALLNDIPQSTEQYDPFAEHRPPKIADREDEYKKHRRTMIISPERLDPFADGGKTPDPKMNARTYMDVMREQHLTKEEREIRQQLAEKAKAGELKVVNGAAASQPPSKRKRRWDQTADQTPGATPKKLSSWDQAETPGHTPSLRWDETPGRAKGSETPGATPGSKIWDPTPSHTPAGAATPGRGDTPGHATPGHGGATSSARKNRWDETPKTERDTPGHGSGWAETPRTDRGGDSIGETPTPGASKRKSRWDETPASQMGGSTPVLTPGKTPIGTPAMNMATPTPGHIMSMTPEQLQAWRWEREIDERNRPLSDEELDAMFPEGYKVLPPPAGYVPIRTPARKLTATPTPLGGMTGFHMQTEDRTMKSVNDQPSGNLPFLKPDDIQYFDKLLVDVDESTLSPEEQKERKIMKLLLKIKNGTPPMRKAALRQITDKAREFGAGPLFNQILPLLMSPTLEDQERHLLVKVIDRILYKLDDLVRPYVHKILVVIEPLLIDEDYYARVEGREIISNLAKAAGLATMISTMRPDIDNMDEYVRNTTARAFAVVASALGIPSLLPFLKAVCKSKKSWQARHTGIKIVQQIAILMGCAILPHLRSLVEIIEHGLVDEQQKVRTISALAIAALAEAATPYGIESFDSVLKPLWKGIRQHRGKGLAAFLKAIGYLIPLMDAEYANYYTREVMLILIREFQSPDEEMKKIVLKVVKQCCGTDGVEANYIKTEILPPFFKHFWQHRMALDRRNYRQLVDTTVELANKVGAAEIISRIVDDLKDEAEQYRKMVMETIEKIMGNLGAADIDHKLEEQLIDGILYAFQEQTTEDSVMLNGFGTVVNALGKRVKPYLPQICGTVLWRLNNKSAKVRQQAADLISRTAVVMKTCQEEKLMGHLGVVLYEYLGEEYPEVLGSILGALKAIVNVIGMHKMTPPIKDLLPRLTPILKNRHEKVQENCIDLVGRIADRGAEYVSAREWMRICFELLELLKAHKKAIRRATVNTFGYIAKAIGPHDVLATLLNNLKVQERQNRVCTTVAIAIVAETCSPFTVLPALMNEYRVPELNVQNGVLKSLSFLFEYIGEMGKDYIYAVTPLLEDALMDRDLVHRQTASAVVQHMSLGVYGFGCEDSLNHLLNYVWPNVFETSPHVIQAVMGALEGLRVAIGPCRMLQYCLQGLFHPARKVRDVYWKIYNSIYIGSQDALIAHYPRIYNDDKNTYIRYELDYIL
UniProt Q6P4A7: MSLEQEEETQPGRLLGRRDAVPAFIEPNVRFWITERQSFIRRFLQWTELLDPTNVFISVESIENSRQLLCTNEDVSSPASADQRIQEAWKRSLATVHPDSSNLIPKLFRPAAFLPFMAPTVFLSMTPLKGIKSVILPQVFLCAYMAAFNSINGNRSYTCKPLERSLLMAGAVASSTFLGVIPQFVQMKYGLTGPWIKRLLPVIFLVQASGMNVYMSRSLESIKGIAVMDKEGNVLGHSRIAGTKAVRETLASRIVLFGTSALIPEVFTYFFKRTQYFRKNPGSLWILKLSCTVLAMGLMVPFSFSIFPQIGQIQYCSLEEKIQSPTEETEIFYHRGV
UniProt P55822: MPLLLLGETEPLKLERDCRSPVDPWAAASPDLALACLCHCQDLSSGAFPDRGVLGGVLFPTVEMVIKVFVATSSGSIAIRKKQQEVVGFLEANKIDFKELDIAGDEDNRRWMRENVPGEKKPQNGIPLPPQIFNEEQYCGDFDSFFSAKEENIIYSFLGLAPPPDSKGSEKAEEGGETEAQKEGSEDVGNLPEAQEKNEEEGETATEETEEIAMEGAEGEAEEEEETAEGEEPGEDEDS
UniProt Q9UGK8: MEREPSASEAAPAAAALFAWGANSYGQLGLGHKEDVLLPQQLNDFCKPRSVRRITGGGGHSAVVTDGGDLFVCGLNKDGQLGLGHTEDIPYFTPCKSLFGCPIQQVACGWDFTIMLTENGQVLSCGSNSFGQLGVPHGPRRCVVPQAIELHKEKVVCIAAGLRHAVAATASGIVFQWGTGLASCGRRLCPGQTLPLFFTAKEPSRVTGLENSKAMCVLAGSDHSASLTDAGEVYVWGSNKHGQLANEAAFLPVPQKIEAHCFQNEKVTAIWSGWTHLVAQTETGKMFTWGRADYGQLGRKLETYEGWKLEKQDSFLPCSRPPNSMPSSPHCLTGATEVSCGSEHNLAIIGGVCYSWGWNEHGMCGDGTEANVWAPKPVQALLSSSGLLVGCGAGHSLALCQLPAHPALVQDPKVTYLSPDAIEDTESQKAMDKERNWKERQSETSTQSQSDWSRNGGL
UniProt Q8WVK7: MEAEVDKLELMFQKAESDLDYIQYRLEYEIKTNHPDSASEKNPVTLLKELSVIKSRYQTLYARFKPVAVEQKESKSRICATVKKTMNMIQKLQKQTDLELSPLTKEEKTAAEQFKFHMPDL
UniProt Q15637: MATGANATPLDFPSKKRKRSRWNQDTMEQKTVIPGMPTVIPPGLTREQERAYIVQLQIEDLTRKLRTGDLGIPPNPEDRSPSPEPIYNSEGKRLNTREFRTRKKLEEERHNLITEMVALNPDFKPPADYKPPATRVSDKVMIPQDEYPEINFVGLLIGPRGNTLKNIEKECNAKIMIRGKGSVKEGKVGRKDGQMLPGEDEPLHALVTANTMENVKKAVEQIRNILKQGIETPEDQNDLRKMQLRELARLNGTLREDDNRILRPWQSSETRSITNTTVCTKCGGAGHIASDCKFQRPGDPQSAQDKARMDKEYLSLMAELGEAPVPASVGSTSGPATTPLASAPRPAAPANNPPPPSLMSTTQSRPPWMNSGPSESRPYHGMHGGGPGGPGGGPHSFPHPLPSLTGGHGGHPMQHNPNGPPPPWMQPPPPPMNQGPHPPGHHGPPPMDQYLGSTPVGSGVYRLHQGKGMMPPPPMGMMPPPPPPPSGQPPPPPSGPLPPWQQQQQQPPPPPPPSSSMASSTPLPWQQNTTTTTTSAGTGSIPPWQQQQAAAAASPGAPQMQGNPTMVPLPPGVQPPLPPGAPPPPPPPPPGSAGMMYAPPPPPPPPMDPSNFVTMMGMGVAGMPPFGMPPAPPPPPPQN
UniProt P84101: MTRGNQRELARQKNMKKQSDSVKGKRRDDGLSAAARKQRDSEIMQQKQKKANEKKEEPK
UniProt Q99720, whole entry, looked up: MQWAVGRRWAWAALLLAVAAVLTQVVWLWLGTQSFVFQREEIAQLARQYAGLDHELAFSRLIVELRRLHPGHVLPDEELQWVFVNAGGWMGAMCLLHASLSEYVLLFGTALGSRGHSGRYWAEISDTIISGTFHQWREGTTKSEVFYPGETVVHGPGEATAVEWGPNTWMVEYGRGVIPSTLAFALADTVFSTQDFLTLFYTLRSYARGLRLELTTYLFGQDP

Compound: C[C@H](C1=CC=C(C=C1)C(=O)NC2=C3C=CNC3=NC=C2)N
Assay: log2 fold change, soluble protein after heating vs DMSO (PISA); higher = thermal stabilisation; K562 lysate, 10 uM; active = over 0.2 and 3.5 SD of the protein, either way, in both replicates (recomputed)
Method in brief: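 Quantification was by TMTpro 16plex LC-MS/MS with equalised channel sums, applied to the supernatant after 21,000xg for 90 min. Samples were crude K562 extract at 1 mg/mL protein in PBS pH 7.4 with 1 mM MgCl2, treated with 10 μM compound for 30 min, heated for 3 min across 48°C-58°C, pooled and brought to 0.5% NP-40 at 4°C. Values are log-two fold changes in thermal stability relative to solvent controls, from duplicates.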

| Target | log2 fold change |
| --- | --- |
| SESN2 (UniProt P58004) | inactive: 0.041 |
| SLC11A2 isoform 3 (UniProt P49281) | inactive: -0.052 |
| SERPINH1 (UniProt P50454) | inactive: -0.048 |
| SKAP2 (UniProt O75563) | inactive: -0.06 |
| SH3BGRL3 (UniProt Q9H299) | inactive: -0.011 |
| SLAIN2 (UniProt Q9P270) | inactive: -0.046 |
| SH3BGRL2 (UniProt Q9UJC5) | active: 0.342 |
| SH3GL1 (UniProt Q99961) | inactive: 0.028 |
| SIRT5 (UniProt Q9NXA8) | inactive: -0.006 |
| SERBP1 (UniProt Q8NC51) | inactive: 0.21 |
| SFSWAP isoform 2 (UniProt Q12872) | inactive: -0.097 |
| SERPINB9 (UniProt P50453) | inactive: 0.015 |
| SIRT2 (UniProt Q8IXJ6) | inactive: -0.021 |
| SF3B1 (UniProt O75533) | inactive: -0.045 |
| SFXN4 (UniProt Q6P4A7) | inactive: -0.087 |
| SETMAR (UniProt Q53H47) | inactive: 0.026 |
| SH3BGR (UniProt P55822) | inactive: -0.031 |
| SERGEF (UniProt Q9UGK8) | inactive: 0.031 |
| SKA2 (UniProt Q8WVK7) | inactive: 0.048 |
| SF1 isoform 5 (UniProt Q15637) | inactive: -0.017 |
| SERF2 (UniProt P84101) | inactive: -0.01 |
| SIPA1 (UniProt Q96FS4) | inactive: -0.034 |
| SIGMAR1 (UniProt Q99720) | inactive: -0.138 |

A second format for part of the listing above:
Target | log2 fold change
SERPINB9 (UniProt P50453) | inactive: 0.015
SIPA1 (UniProt Q96FS4) | inactive: -0.034
